Results taken from patent US20160038454A1, “INTRAVENOUS FORMULATIONS OF […] AS IMMUNOMODULATORS AND […] AGENTS” (priority 2013, published 2016).
Some of these results come from one statement about several compounds together.

Experiment: Incubation in serum: conversion of prodrug to triptolide
Type: in vitro ADME

CC(C)[C@]12O[C@H]1[C@@H]1O[C@]13[C@@]1(OC(=O)O[C@H]21)[C@H](Cl)C[C@H]1C2=C(CC[C@@]13C)C(=O)OC2 [PG762]
time for conversion to triptolide on incubation in serum: ≤ 5 min
